The record followed here is doi:10.1101/2020.03.06.980433.

Chains of the proteins cited; added tags and fusions are not shown.
UniProt P60521: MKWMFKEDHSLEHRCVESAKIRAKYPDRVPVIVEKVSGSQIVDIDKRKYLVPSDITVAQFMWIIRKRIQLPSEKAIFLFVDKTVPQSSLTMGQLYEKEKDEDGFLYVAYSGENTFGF

Results are given in words; binding and its absence hold for the method and conditions named. In cells and extracts the contact can be indirect. Some entries that bind do so weakly or less than the wild type.

The experiment concerns the target Irgm2-GFP (mouse). In words: co-IP.

As to “gamma-aminobutyric acid (GABA)-A-receptor-associated protein (GabarapL2 or Gate-16) (from UniProt P60521 1-117)”, the binding entry is “binds”.
